# In all, about 31,000 sequences went through this assay and about 1,400 (4.5%) were called active.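 The calls were made as follows: active = median seed-adjusted z-score above 1 or below -1; inactive = the rest.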 Some of the results follow.
# Assay: Novel Modifiers of Survival Motor Neuron (SMN) Protein: Gene Identification via Genome-wide siRNA Screen;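 also: luminescence tracks full-length SMN protein made from the SMN2 reporter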
# Settings: HEK293T SMN2-luciferase reporter, siRNA knockdown, 72 h; actives lie on both sides
# In short: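 Luciferase signal, proportional to full-length SMN made from an SMN2 cDNA reporter in stable HEK293T cells, was read 72 h after siRNA reverse transfection. Values were expressed as MAD scores after non-targeting-control normalization and log10 conversion; seed analysis flagged off-targets.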
row,Sequence,median seed-adjusted z-score
1,GUUGCACUGUCGGUCCUGATT against GRINA,inactive: 0.175
2,GGAAGAGGCAUGCACCCAATT against GUCY2E,inactive: 0.61
3,GUCUUUGUCUAGAUACAAUTT against BTBD1,inactive: 0.0192
4,AGGGCGAUAUGAUGCAGAATT against OLIG3,inactive: -0.598
5,CUAUGUGAUUGAUCAAGGATT against PRKAR1A,inactive: 0.428
6,CGAUUACAUUGACAACCAUTT against KCNQ4,inactive: 0.583
7,GCGGUACUCAGAAACAGAATT against HEXB,inactive: 0.0101
8,CACUCUAGAGAAACCCUAUTT against ZNF44,inactive: 0.349
9,GCAGUAUGAUAAAGCCUGUTT against ZXDC,inactive: -0.0213
10,GGCUGUUUCUGUUGCGGAATT against BFSP1,inactive: 0.057
11,GCUUCGAAGGGAAAACCAATT against GPR17,inactive: -0.309
12,GCAUCGUUUUCAGUGCCGATT against GRM5,inactive: -0.227
13,CAGAAAUGCUAGCCCUUCATT against GPR68,inactive: -0.0233
14,GACCGGCCGUUCAGAAUGATT against RPUSD1,inactive: 0.327
15,CAGCGUAACGUGAACAUAUTT against LDHA,inactive: 0.401
16,GCCGUCCACUUGAAGAUCATT against BNC1,inactive: -0.631
17,GAACUACACUGCGAGCUUUTT against RND2,inactive: -0.0613
18,GCUCUUAUCUUUUGUCCAATT against SNRNP40,inactive: 0.677
19,GUGCAUCAACUAUACCGAUTT against SCN10A,inactive: -0.401
20,GCCCAGAAGGGUUACGAAATT against GNPTAB,inactive: 0.296
21,ACCCAGAUCUCUACCUGAATT against TACR1,inactive: -0.391
22,UAAGGUUUCUAAUCAACAATT against ZNF137,inactive: 0.0526

row,Sequence,median seed-adjusted z-score
1,GCAACAACAAAAUCGCACATT against VN1R4,inactive: -0.0601
2,GCUGUAUAUUGGAUUAGAATT against CDC16,inactive: 0.106
3,CGCAUUUACGGAUAUCCUATT against CASR,inactive: 0.111
4,CCAUCAACAUCGCCCUGAATT against PLOD1,inactive: 0.481
5,CCAUUAACGAGCUGCUUAATT against PLK1,active: -2.57
6,GCUGAUGUUUGAUAAAACUTT against MSI2,inactive: 0.582
7,GGAGGAUUCCAAACCGAUATT against XPNPEP3,inactive: -0.282
8,GCAGCAUUGUGGAUGUGGATT against LPCAT4,inactive: 0.338
9,CCGACUACGUCAUUCCAGCTT against P2RX5,inactive: 0.313
10,GGAACUUAAGCAGCCGUUATT against EVI1,inactive: 0
11,CUGUCUUCCUUAUAGGGUUTT against OPN1SW,inactive: 0.32
12,GAGUCUAUGAGGACAAUAATT against SPTLC3,inactive: 0.279
13,CGGCGAUGCAAAAACCAAATT against RNASE2,inactive: 0.283
14,AGAACUUUGUGCACCGUGATT against ZAP70,inactive: -0.674
15,CAACAAGUGGGAAACGAUATT against CPB1,inactive: -0.376
16,CGAUAUGGAAAAUCCCUAUTT against ANXA10,inactive: 0.0445
17,CGUGCUAUUUAUCAUCACATT against UGT2B10,inactive: 0.989
18,GGAAGAACAUAUACUAUAATT against MAOA,inactive: 0.665
19,CAUUAAUGGUUAGAGUUAATT against PCDHGB6,inactive: 0.34
20,CCUAUUCCCGAAGCCGUUATT against PLAUR,inactive: -0.118
21,GGAUCUAUCCAGAUGAAUATT against ZNF300,inactive: -0.302
22,CGUAUACCCUGGUGGUUCATT against CDH1,inactive: -0.24

row,Sequence,median seed-adjusted z-score
1,GGAUACUUCAGGACUAGAATT against PNN,active: 1.29
2,CCAUCUGCUUUCCCGAGUATT against GNAZ,inactive: -0.604
3,GAAAUGCUUUCAGAACAGATT against ZNF641,inactive: 0.233
4,CCAUCACCGUUGAUGACAATT against JAK1,inactive: 0.0199
5,GCUCAAGGCAUUCUACAAATT against SLC25A1,inactive: 0.252
6,GCUACACGCUGAACGAGCATT against ZNF517,inactive: 0.0158
7,GACUGACAUUGAGAUUACATT against CCT3,inactive: -0.416
8,CCGUCAGAAUUCUACAAUUTT against KCNQ3,inactive: 0.313
9,AGAUGAAUGUCAAGAUGCUTT against MYL4,inactive: -0.388
10,GGGCUGAUGUUAUCAACUUTT against CNTNAP2,inactive: -0.196
11,GCGACUUUCUUGGUUUGCATT against SNX2,inactive: -0.569
12,CAUGAACGGCUGUUACUCATT against ID1,inactive: 0
13,GCUGCGUCUCCCUUCCAAATT against GP1BB,inactive: -0.711
14,GCCUGACCAUCUCCAUUGUTT against USH1C,inactive: -0.164
15,GGAUCUCACCCAGUACUGATT against DMRTC2,inactive: 0
16,CAGAUGUGGUGAUGCGUGATT against DMBX1,inactive: -0.207
17,GCAUGGACGGGUAUGUUGATT against FAM12B,inactive: 0.312
18,GAGUGUUGCGUGGAUGUAATT against DUSP5,inactive: 0.324
19,CAAUCAGGCUGAUAUUGCATT against PIGN,inactive: 0.215
20,UCGACUCCCUGAGCAUUGATT against SARDH,inactive: -0.195
21,CUGAUGAUCUACUCAUAUATT against TEKT1,inactive: 0.222
22,CAUCCAGCAUACAAAAGAATT against FCRL3,inactive: -0.642

row,Sequence,median seed-adjusted z-score
1,GGUUGGUGAUGUCAAGUAUTT against CDKL2,inactive: -0.293
2,CCCGGACCUUCAUCACCAUTT against MAP2K3,inactive: 0.365
3,GAUGAUGCUUUGUCAGACATT against TRIB1,inactive: 0
4,GGAACGGGCUGGAGUUAAATT against FUBP1,active: -1.52
5,CGAUUACGGCUGGUACAAUTT against GPR137,inactive: 0.564
6,CUAUCGUAAGCUUCGAAAATT against IQGAP2,inactive: 0.194
7,ACAUGUCUGACAUCACCAATT against NAT8B,inactive: 0.206
8,UUACUUCUGUGGAAUACAATT against SLC25A41,inactive: 0.0703
9,CCUGUGAUCCGCCCAAUUATT against RBM42,inactive: 0
10,UCCAGCAAGUGGCCAAGAATT against DUPD1,inactive: -0.406
11,CGGUGACACUACUGCAUGATT against KIF1A,inactive: 0.318
12,GCCCUGAUCUUCUACUACUTT against P2RY1,inactive: -0.844
13,CGACCCUUGAAGUUCAAUATT against EFTUD2,active: -1.25
14,GAUCGUAUCAUAUACUCGATT against MMP7,inactive: 0.0315
15,GACUAUUCCUCUUUGUAUATT against BHLHB3,inactive: -0.00972
16,GCAAGAUUGUCAUUGACUUTT against DCTD,inactive: 0
17,GGAGCUCAGUGUAUCGUCATT against SLIT2,inactive: -0.592
18,CCAACAUCGAGAACAACAATT against PARP3,inactive: -0.0383
19,CGGACCCAGUAUGAACUGATT against KRT77,inactive: -0.0863
20,GCAGGGACAUGUUCAACCATT against SPRED2,inactive: -0.749
21,UGAUGGAGCUGCUACCAGATT against ADPRH,inactive: -0.406
22,GCACCUCACUCAUCAUGCATT against CYP26B1,inactive: -0.213

row,Sequence,median seed-adjusted z-score
1,GGAGUGAGAUUGAUCUGUUTT against ANXA5,inactive: 0.268
2,GGAUUUUUGAUUUUCCGAATT against TUBAL3,active: 1.05
3,GGAUCUACAAAUGUCCGAATT against PROSC,inactive: 0.173
4,GCCUAAGGCUCAUCACCAUTT against CNTNAP3,inactive: 0.15
5,CCAAGGUUUUAAGCGAUGATT against THADA,inactive: 0.00995
6,CAUCAGGUAUACUAGGGAATT against ERAS,inactive: 0.289
7,GUAAUGGAACAGCAAGUAATT against MAP2K5,inactive: 0.986
8,CCAAGUCGGUGGUUGUGAATT against P2RX3,inactive: -0.44
9,CCACGGGUAAAGAAGUUAATT against MKL2,inactive: -0.863
10,CGACUUGAGCGAAGUUUUATT against ZFP36L1,inactive: -0.933
11,ACAACUGUCUGGACCCGUUTT against P2RY8,inactive: -0.136
12,GGCACAGAAAUUAAAGGAATT against FANCA,inactive: 0.418
13,GAAUGAUUUUCCAAAUGGATT against SLC25A21,inactive: -0.219
14,CCAGCUUCACUACACGGUATT against PCDH10,inactive: -0.488
15,GUCAGAUACAUGAACCAGATT against JMJD1A,inactive: 0.466
16,AGAUGGGACGGGUCACUAUTT against GATA4,inactive: -0.24
17,GAGAAUAACCUAUAUGGAATT against PDHA2,inactive: 0.118
18,GUUUGUGACUGUAACCAUUTT against CTBP1,inactive: 0.105
19,GUAUGUUACCUGGAAACUATT against LDHB,inactive: -0.515
20,CGGCGUGAGGAUUACCAAATT against HOMEZ,inactive: -0.0614

# For reference, part of the list above.
row,Sequence,median seed-adjusted z-score
20,GCAGGGACAUGUUCAACCATT against SPRED2,inactive: -0.749
21,UGAUGGAGCUGCUACCAGATT against ADPRH,inactive: -0.406
22,GCACCUCACUCAUCAUGCATT against CYP26B1,inactive: -0.213
1,GGAGUGAGAUUGAUCUGUUTT against ANXA5,inactive: 0.268
2,GGAUUUUUGAUUUUCCGAATT against TUBAL3,active: 1.05
3,GGAUCUACAAAUGUCCGAATT against PROSC,inactive: 0.173
4,GCCUAAGGCUCAUCACCAUTT against CNTNAP3,inactive: 0.15
5,CCAAGGUUUUAAGCGAUGATT against THADA,inactive: 0.00995
6,CAUCAGGUAUACUAGGGAATT against ERAS,inactive: 0.289
7,GUAAUGGAACAGCAAGUAATT against MAP2K5,inactive: 0.986
8,CCAAGUCGGUGGUUGUGAATT against P2RX3,inactive: -0.44
9,CCACGGGUAAAGAAGUUAATT against MKL2,inactive: -0.863
10,CGACUUGAGCGAAGUUUUATT against ZFP36L1,inactive: -0.933
11,ACAACUGUCUGGACCCGUUTT against P2RY8,inactive: -0.136
12,GGCACAGAAAUUAAAGGAATT against FANCA,inactive: 0.418
13,GAAUGAUUUUCCAAAUGGATT against SLC25A21,inactive: -0.219
14,CCAGCUUCACUACACGGUATT against PCDH10,inactive: -0.488
15,GUCAGAUACAUGAACCAGATT against JMJD1A,inactive: 0.466
16,AGAUGGGACGGGUCACUAUTT against GATA4,inactive: -0.24
17,GAGAAUAACCUAUAUGGAATT against PDHA2,inactive: 0.118

# Source: PubChem BioAssay AID1347426 (Functional Genomics Laboratory (NCATS/FGL), 2020)
